The values below come from PubChem BioAssay AID1487 (National Center for Advancing Translational Sciences (NCATS), 2009).

The list shows a part of the results. The main result of the screen is listed elsewhere. These columns were measured beside it and carry no call. Compounds called inactive in the main read-out are mostly missing here. The note in brackets gives the kind of curve behind each potency; many fits are weak.

The nature of the test: qHTS Assay for Modulators of Lamin A Splicing. The conditions noted are these: HeLa LMNA splicing GFP/RFP minigene ratio, 48 h. The method, boiled down: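 S3 HeLa stable clones carrying a lamin A-EGFP splicing minigene plus DsRed2 were seeded at 600 cells/well in Opti-MEM with 2% FBS, pin-dosed and incubated 48 h at 37°C. Acumen cytometry (488 nm) gave the GFP/RFP total-intensity ratio.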

Setting [1] is: measured here: RFP viability control channel.
Where [2] appears, read: measured here: GFP splicing reporter channel.

As to `COc1cc(NC(=O)CSCC(=O)Nc2cccc(C(F)(F)F)c2)c(Cl)cc1Cl`, under setting [1], the AC50 was 14.1 µM [falling, partial curve, poor fit].

Turning to `CCOC(=O)c1[nH]c(C)c(CCC(=O)N2CCN(c3cccc(C)c3C)CC2)c1C`, the AC50 runs as follows: under setting [2], 35.5 µM [rising, single point]; under setting [1], 35.5 µM [rising, single point].

As to `CSc1nnc2ccc(-c3ccccn3)nn12`, the AC50 by setting is: under setting [2], 0.794 µM [rising, full curve]; under setting [1], 1.26 µM [rising, full curve].

For `CCCCCCCCOC(=O)C1=C(C)Nc2nnnn2C1c1cccs1` (configuration not stated), the half-maximal activity concentration (AC50) under setting [2] was 35.5 µM [falling, single point] and the AC50 under setting [1] is 28.2 µM [falling, single point].

As for `CS(=O)(=O)NCCCCNc1ccc(C(F)(F)F)cc1[N+](=O)[O-]`, the AC50 under setting [2] was 17.8 µM [falling, partial curve, poor fit].

With `N#CC1=C(N)N2C(=C(C#N)C13CCCCC3)SC1CCCCC12O` (configuration not stated), the AC50 under setting [1] was 12.6 µM [rising, partial curve].

With `CC(C)c1cc(NC(=O)c2ccccc2)cc(C(C)C)c1O`, under setting [1], the AC50 is 17.8 µM [rising, single point].

Turning to `Cc1cc(N2CCCCC2)n2nc(C)c(-c3ccccc3)c2n1`, the half-maximal activity concentration (AC50) is, setting by setting: under setting [2], 35.5 µM [rising, single point]; under setting [1], 35.5 µM [rising, single point].

`COc1ccc(C)cc1NC(=O)NC(C)c1ccncc1` (configuration not stated): the AC50 under setting [1] is 2 µM [falling, partial curve, poor fit].

Turning to `O=C1ON=C(c2ccccc2)/C1=C/c1ccc(-c2ccccc2[N+](=O)[O-])o1`, the concentration at half-maximal activity (AC50) under setting [1] was 14.1 µM [rising, partial curve, poor fit].

Regarding `Brc1ccc(-c2nnc3n2C2(CCCC2)Cc2ccccc2-3)o1`, the AC50 is 35.5 µM [rising, single point] under setting [2] and 35.5 µM [rising, single point] under setting [1].

For the compound `COc1ccc(OCc2nc3ccc(S(=O)(=O)Nc4ccccc4Cl)cc3[nH]2)cc1`, the half-maximal activity concentration (AC50) under setting [1] was 11.2 µM [rising, partial curve].

For the compound `O=C1CN(C(=O)CSc2nc(-c3ccccc3)cs2)c2ccccc2N1`, the concentration at half-maximal activity (AC50) is, setting by setting: under setting [2], 7.08 µM [rising, partial curve]; under setting [1], 12.6 µM [rising, partial curve].

On to `COc1ccc(CCNC(=O)c2c(O)c3cccc4c3n(c2=O)CC4)cc1OC`, for which the AC50 is 11.2 µM [rising, single point] under setting [2] and 22.4 µM [rising, single point] under setting [1].

Turning to `O=C(OCc1nnc(-c2ccccc2)o1)c1cc([N+](=O)[O-])ccc1Cl`, under setting [1], the AC50 was 12.6 µM [rising, partial curve, poor fit].

In general, AC50 refers to the midpoint of the concentration-response curve, whichever way the signal moves.
